Counter-ions that a name gives are not always drawn. Some of the results follow. Single values are uncertain, as repeats are few or missing.
Tested on: Drosophila melanogaster DPAGT1 (Alg7) RNAi eye model
Assay: eye size Z-score vs DMSO-treated DPAGT1 model flies; higher = larger eye (suppression of DPAGT1 phenotype)
Conditions: 5 uM

| SMILES | eye size Z-score | eye size Z-score (female) |
| --- | --- | --- |
| O=C(CCCN1CCC2(CC1)C(=O)NCN2c1ccccc1)c1ccc(F)cc1 [Spiperone] | 0.71 | – |
| CC(N)C(O)c1ccccc1 (stereo not drawn) [Phenylpropanolamine hydrochloride] | -1.13 | – |
| C=C1CC[C@@]2(O)[C@H]3Cc4ccc(O)c5c4[C@@]2(CCN3CC2CC2)[C@H]1O5 [Nalmefene hydrochloride] | -0.32 | – |
| O=[N+]([O-])O[C@H]1CO[C@H]2[C@@H]1OC[C@H]2O[N+](=O)[O-] [Isosorbide dinitrate] | 0.3 | – |
| NCC1(CC(=O)O)CCCCC1 [Gabapentin] | – | 0.1 |
| CC(O)(CS(=O)(=O)c1ccc(F)cc1)C(=O)Nc1ccc(C#N)c(C(F)(F)F)c1 (stereo not drawn) [Bicalutamide] | 0.07 | – |
| CCOC(=O)c1cncn1[C@H](C)c1ccccc1 [Etomidate] | 0.31 | – |
| Cc1cc(C(C#N)c2ccc(Cl)cc2)c(Cl)cc1NC(=O)c1cc(I)cc(I)c1O (stereo not drawn) [Closantel] | 1.08 | – |
| C[C@@H]1C[C@@H]([C@H](O)CC2CC(=O)NC(=O)C2)C(=O)[C@@H](C)C1 [Cycloheximide] | 0.67 | – |
| CCC1(C2=NCCN2)Cc2ccccc2O1 (stereo not drawn) [Efaroxan hydrochloride] | 0.67 | – |
| CC[C@@H](CO)NC(=O)[C@@H]1C=C2c3cccc4[nH]cc(c34)C[C@H]2N(C)C1 [Methylergometrine maleate] | 0.75 | – |
| COc1cc2c(c(OC)c1OC)-c1ccc(OC)c(=O)cc1[C@@H](NC(C)=O)CC2 [Colchicine] | -0.36 | – |
| C[C@]12CC[C@H](O)CC1=CC[C@@H]1[C@@H]2CC[C@]2(C)C(=O)CC[C@@H]12 [Prasterone] | 0.37 | – |
| CC[N+]1(C)CCCC(OC(=O)C(O)(c2ccccc2)c2ccccc2)C1 (stereo not drawn) [Pipenzolate bromide] | 0.08 | – |
| c1ccc2c(c1)OCC(C1=NCCN1)O2 (stereo not drawn) [Idazoxan hydrochloride] | 0.63 | – |
| CCCCCC[C@H]1C(=O)O[C@H](C)[C@H](NC(=O)c2cccc(NC=O)c2O)C(=O)O[C@@H](C)[C@@H]1OC(=O)CC(C)C [Antimycin A] | 0.05 | – |
| CC(C)c1cccc(C(C)C)c1O [Propofol] | -0.28 | – |
| C[C@]12CC[C@H](O)C[C@H]1CC[C@@H]1[C@@H]2CC[C@]2(C)[C@@H](C3=CC(=O)OC3)CC[C@]12O [Digitoxigenin] | -0.87 | – |
| Oc1ccc2c3c1O[C@H]1[C@@H](O)CC[C@@]4(O)[C@@H](C2)N(CC2CCC2)CC[C@]314 [Nalbuphine hydrochloride] | 0.52 | – |
| O=C(NCNC(=O)NC1C(=O)NC(=O)N1CO)NC1C(=O)NC(=O)N1CO (stereo not drawn) [Imidurea] | 0.38 | – |
| CC(=O)O[C@H]1CC[C@@]2(C)C(=CC[C@@H]3[C@@H]2CC[C@]2(C)C(=O)CC[C@@H]32)C1 [Dehydroisoandosterone 3-acetate] | 0.85 | – |
| CN1C[C@H](CNC(=O)OCc2ccccc2)C[C@@H]2c3cccc4c3c(cn4C)C[C@H]21 [Metergoline] | 0.17 | – |
| C=CCN1CC[C@]23c4c5ccc(O)c4O[C@H]2C(=O)CC[C@@]3(O)[C@H]1C5 [Naloxone hydrochloride] | -0.68 | – |

| SMILES | eye size Z-score | eye size Z-score (female) |
| --- | --- | --- |
| CCCC(C)C1(CC)C(=O)NC(=O)NC1=O (stereo not drawn) [Pentobarbital] | 0.7 | – |
| CCCC[N+]1(C)[C@@H]2C[C@@H](OC(=O)[C@H](CO)c3ccccc3)C[C@H]1[C@@H]1O[C@@H]12 (stereo partly drawn) [N-Butylscopolammonium bromide] | 0.16 | – |
| C[C@]12CCC(=O)C=C1C=C[C@@H]1[C@@H]2CC[C@@]2(C)[C@H]1CC[C@@]2(O)CCC(=O)O [Canrenoic acid potassium salt] | -0.09 | – |
| CC[C@@H](C(=O)[C@@H](C)[C@@H](O)[C@H](C)[C@@H]1O[C@@H]([C@@H](CC)C(=O)O)CC[C@@H]1C)[C@H]1O[C@]2(C=C[C@@H](O)[C@]3(CC[C@@](C)([C@H]4CC[C@](O)(CC)[C@H](C)O4)O3)O2)[C@H](C)C[C@@H]1C [Salinomycin sodium] | 1.58 | – |
| Cc1cccc(C)c1NC(=O)CN1CCCC1=O [Nefiracetam] | 0.55 | – |
| NCC(O)c1ccc(O)cc1 (stereo not drawn) [Octopamine hydrochloride] | -0.46 | – |
| c1ccc2c(c1)Nc1ccccc1S2 [Phenothiazine] | 0.88 | – |
| O=c1c2ccccc2[se]n1-c1ccccc1 [Ebselen] | 0.76 | – |
| CC(=O)O[C@H]1C[C@@H]2CC[C@@H]3[C@H](CC[C@@]4(C)[C@H]3C[C@H]([N+]3(C)CCCCC3)[C@@H]4OC(C)=O)[C@@]2(C)C[C@@H]1[N+]1(C)CCCCC1 [Pancuronium bromide] | 0.79 | – |
| CN[C@@H]1[C@@H](O)[C@@H](O[C@@H]2[C@@H](O)[C@H](O[C@H]3O[C@H](CN)CC[C@H]3N)[C@@H](N)C[C@H]2N)OC[C@]1(C)O.CN[C@@H]1[C@@H](O)[C@@H](O[C@@H]2[C@@H](O)[C@H](O[C@H]3O[C@H]([C@@H](C)N)CC[C@H]3N)[C@@H](N)C[C@H]2N)OC[C@]1(C)O.CN[C@@H]1[C@@H](O)[C@@H](O[C@@H]2[C@@H](O)[C@H](O[C@H]3O[C@H]([C@@H](C)NC)CC[C@H]3N)[C@@H](N)C[C@H]2N)OC[C@]1(C)O [Gentamicine sulfate] | 0.48 | – |
| O=C1CC[C@@]2(O)[C@H]3Cc4ccc(O)c5c4[C@@]2(CCN3CC2CC2)[C@H]1O5 [Naltrexone hydrochloride dihydrate] | 0.11 | – |
| NCC(CC(=O)O)c1ccc(Cl)cc1 (stereo not drawn) [Baclofen] | 0.11 | – |
| CN1CCC2(C)c3cc(O)ccc3N(C)C12 (single isomer, unassigned; (-)) [(-) Eseroline fumarate salt] | 0.64 | – |
| CC(NC(C)(C)C)C(=O)c1cccc(Cl)c1 (stereo not drawn) [Bupropion hydrochloride] | 1.08 | – |
| C#C[C@]1(O)CC[C@H]2[C@@H]3CCC4=CC(=O)CCC4=C3C=C[C@@]21CC [Gestrinone] | 1.57 | – |
| CN1[C@@H]2C[C@@H](OC(=O)[C@H](CO)c3ccccc3)C[C@H]1[C@@H]1O[C@@H]12 [Scopolamine hydrochloride] | 0.6 | – |
| N[C@@H]1C[C@H]1c1ccccc1 [Tranylcypromine hydrochloride] | 0.07 | – |
| C#CCN(C)[C@H](C)Cc1ccccc1 [Selegiline hydrochloride] | -0.39 | – |
| CN(C)C(=O)Oc1ccc[n+](C)c1 [Pyridostigmine iodide] | -1.04 | – |
| CC1OC(OC2/C=C/C=C/C=C/C=C/CC/C=C/C=C/[C@H](C)[C@@H](O)[C@@H](C)[C@H](C)OC(=O)CC(O)CC(O)CC(O)CCC(O)C(O)C[C@]3(O)CC(O)C(C(=O)O)C(C2)O3)C(O)C(N)C1O (stereo partly drawn) [Nystatine] | -0.65 | – |
| NCCCNCCSP(=O)(O)O [Amifostine] | 0.55 | – |
| CNCC(O)c1ccc(O)cc1 (stereo not drawn) [Synephrine] | 1.05 | – |
| CC(C)C[C@H]1C(=O)N2CCC[C@H]2[C@]2(O)O[C@](NC(=O)[C@@H]3C=C4c5cccc6[nH]c(Br)c(c56)C[C@H]4N(C)C3)(C(C)C)C(=O)N12 [Bromocryptine mesylate] | 0.32 | – |

Part of the list above in order of heavy-atom count, high to low.

| SMILES | eye size Z-score | eye size Z-score (female) |
| --- | --- | --- |
| CN1[C@@H]2C[C@@H](OC(=O)[C@H](CO)c3ccccc3)C[C@H]1[C@@H]1O[C@@H]12 [Scopolamine hydrochloride] | 0.6 | – |
| Cc1cccc(C)c1NC(=O)CN1CCCC1=O [Nefiracetam] | 0.55 | – |
| C#CCN(C)[C@H](C)Cc1ccccc1 [Selegiline hydrochloride] | -0.39 | – |
| N[C@@H]1C[C@H]1c1ccccc1 [Tranylcypromine hydrochloride] | 0.07 | – |

(list continues)

| SMILES | eye size Z-score | eye size Z-score (female) |
| --- | --- | --- |
| CN1[C@@H]2CC[C@H]1C[C@@H](OC(=O)C(CO)c1ccccc1)C2 (stereo partly drawn) [Atropine sulfate monohydrate] | -0.31 | – |
| CNC(C)(C)Cc1ccccc1 [Mephentermine hemisulfate] | -0.41 | – |
| C[C@]12CCC(=O)C(O)=C1CC[C@@H]1[C@@H]2CC[C@]2(C)C(=O)CC[C@@H]12 [Formestane] | -1.2 | – |
| COc1ccc(C(CN(C)C)C2(O)CCCCC2)cc1 (stereo not drawn) [Venlafaxine] | 0.18 | – |
| CNC(=O)Oc1ccc2c(c1)[C@]1(C)CCN(C)[C@@H]1N2C [Eserine hemisulfate salt] | 0.16 | – |
| CCN(CC)CCOC(=O)C(O)(c1ccccc1)c1ccccc1 [Benactyzine hydrochloride] | 1.64 | – |
| CN(C)C(=O)Oc1cccc([N+](C)(C)C)c1 [Neostigmine bromide] | 1.51 | – |
| CC(C)(N)Cc1ccccc1 [Phentermine hydrochloride] | -0.37 | – |
| CCNCC(O)c1cccc(O)c1 (stereo not drawn) [Etilefrine hydrochloride] | 1.27 | – |
| COC[C@@H](NC(C)=O)C(=O)NCc1ccccc1 [Lacosamide] | -0.17 | – |
| C[C@]12C/C(=C/O)C(=O)C[C@@H]1CC[C@@H]1[C@@H]2CC[C@@]2(C)[C@H]1CC[C@]2(C)O [Oxymetholone] | 0.36 | – |
| CC(=O)[C@H]1CC[C@H]2[C@@H]3CC[C@H]4C[C@H](O)CC[C@]4(C)[C@H]3C(=O)C[C@]12C [Alfaxalone] | 0.88 | – |
| C=C1C[C@@H]2[C@H](CC[C@]3(C)C(=O)CC[C@@H]23)[C@@]2(C)C=CC(=O)C=C12 [Exemestane] | 0.07 | – |
| C[C@]12COC(=O)C[C@@H]1CC[C@@H]1[C@@H]2CC[C@@]2(C)[C@H]1CC[C@]2(C)O [Oxandrolone] | 0.88 | – |
| O=P1(N(CCCl)CCCl)NCCCO1 (stereo not drawn) [Cyclophosphamide] | 0.97 | – |
| CN1C(=O)CCS(=O)(=O)C1c1ccc(Cl)cc1 (stereo not drawn) [Chlormezanone] | -0.53 | – |
| CC(=O)NC1CCSC1=O (stereo not drawn) [Citiolone] | 0.79 | – |
| C=CCC1(CC(C)C)C(=O)NC(=O)NC1=O [Butalbital] | 0.17 | – |
| O=C(CCCN1CCC(n2c(=O)[nH]c3ccccc32)CC1)c1ccc(F)cc1 [Benperidol] | 0.42 | – |
| C[C@@H]1CN([C@H]2CC[C@](C#N)(c3ccc(F)cc3)CC2)CC[C@]1(C(=O)O)c1ccccc1 [Levocabastine hydrochloride] | 0.2 | – |
| COc1ccc(OC)c(C(O)C(C)N)c1 (stereo not drawn) [Methoxamine hydrochloride] | -0.19 | – |
| CCC(=O)O[C@H]1CC[C@H]2[C@@H]3CCC4=CC(=O)CC[C@]4(C)[C@H]3CC[C@]12C [Testosterone propionate] | -0.19 | – |
